No constants are given. Whether binding was seen depends on the method and setting. Binding seen in cells or lysates may run through a third protein. Some results given as binding are weak or reduced against the parent protein; the word gives no strength.

We go through two molecules from paper PMC12819326.

The target in the assay is T1, ASC (mouse (endogenous in MPC-5)), Q9EPB4.
T1 chain: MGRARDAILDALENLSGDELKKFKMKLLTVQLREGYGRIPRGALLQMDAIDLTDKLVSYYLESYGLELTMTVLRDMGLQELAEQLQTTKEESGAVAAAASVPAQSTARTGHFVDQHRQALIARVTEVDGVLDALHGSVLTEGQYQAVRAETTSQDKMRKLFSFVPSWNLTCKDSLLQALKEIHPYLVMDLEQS
Briefly: co-IP; lysates of MPC-5 podocytes stimulated with immune complexes (ICs), with or without low-dose Hyperoside; immunoprecipitated with anti-ASC antibody, immunoblotting for the partner; input and IgG as controls. Conditions: remark: other sources report otherwise. A general note: Immunoblotting shows a protein as a band on a membrane.

B1: RIPK3, Q9QZL0 1-486 (protein)
chain: MSSVKLWPTGASAVPLVSREELKKLEFVGKGGFGVVFRAHHRTWNHDVAVKIVNSKKISWEVKAMVNLRNENVLLLLGVTEDLQWDFVSGQALVTRFMENGSLAGLLQPECPRPWPLLCRLLQEVVLGMCYLHSLNPPLLHRDLKPSNILLDPELHAKLADFGLSTFQGGSQSGSGSGSGSRDSGGTLAYLDPELLFDVNLKASKASDVYSFGILVWAVLAGREAELVDKTSLIRETVCDRQSRPPLTELPPGSPETPGLEKLKELMIHCWGSQSENRPSFQDCEPKTNEVYNLVKDKVDAAVSEVKHYLSQHRSSGRNLSAREPSQRGTEMDCPRETMVSKMLDRLHLEEPSGPVPGKCPERQAQDTSVGPATPARTSSDPVAGTPQIPHTLPFRGTTPGPVFTETPGPHPQRNQGDGRHGTPWYPWTPPNPMTGPPALVFNNCSEVQIGNYNSLVAPPRTTASSSAKYDQAQFGRGRGWQPFHK
B1: the binding entry was “binds”.

B2: caspase-8, O89110 1-480 (protein)
chain: MDFQSCLYAIAEELGSEDLAALKFLCLDYIPHKKQETIEDAQKLFLRLREKGMLEEGNLSFLKELLFHISRWDLLVNFLDCNREEMVRELRDPDNAQISPYRVMLFKLSEEVSELELRSFKFLLNNEIPKCKLEDDLSLLEIFVEMEKRTMLAENNLETLKSICDQVNKSLLGKIEDYERSSTERRMSLEGREELPPSVLDEMSLKMAELCDSPREQDSESRTSDKVYQMKNKPRGYCLIINNHDFSKAREDITQLRKMKDRKGTDCDKEALSKTFKELHFEIVSYDDCTANEIHEILEGYQSADHKNKDCFICCILSHGDKGVVYGTDGKEASIYDLTSYFTGSKCPSLSGKPKIFFIQACQGSNFQKGVPDEAGFEQQNHTLEVDSSSHKNYIPDEADFLLGMATVKNCVSYRDPVNGTWYIQSLCQSLRERCPQGDDILSILTGVNYDVSNKDDRRNKGKQMPQPTFTLRKKLFFPP
For B2, the binding result is “binds”.
